Data reported in the supplement of paper PMC10849652.
Some of the results follow.

The chains behind the UniProt entries cited, without tags or fusion partners. Where a name states a change or a piece, a line headed by the entry shows the natural chain unless it says otherwise.
UniProt Q9UL45: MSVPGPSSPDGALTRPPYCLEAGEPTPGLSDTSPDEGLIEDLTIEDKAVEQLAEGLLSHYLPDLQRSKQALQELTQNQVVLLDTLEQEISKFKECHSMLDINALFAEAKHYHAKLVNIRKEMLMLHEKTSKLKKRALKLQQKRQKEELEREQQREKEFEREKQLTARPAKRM
UniProt Q07817, whole entry, looked up: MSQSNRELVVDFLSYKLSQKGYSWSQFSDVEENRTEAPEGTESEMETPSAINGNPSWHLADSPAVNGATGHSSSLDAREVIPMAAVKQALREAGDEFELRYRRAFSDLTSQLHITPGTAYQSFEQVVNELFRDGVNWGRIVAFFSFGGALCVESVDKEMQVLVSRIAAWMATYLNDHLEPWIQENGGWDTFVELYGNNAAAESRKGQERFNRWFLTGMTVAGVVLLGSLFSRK
UniProt Q6QNY0: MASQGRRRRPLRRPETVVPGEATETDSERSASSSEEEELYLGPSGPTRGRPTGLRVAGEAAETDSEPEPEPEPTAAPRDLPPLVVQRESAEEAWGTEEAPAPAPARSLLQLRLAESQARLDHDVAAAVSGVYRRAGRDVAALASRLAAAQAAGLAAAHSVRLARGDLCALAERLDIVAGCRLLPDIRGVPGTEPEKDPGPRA
UniProt Q9NR09, whole entry, looked up: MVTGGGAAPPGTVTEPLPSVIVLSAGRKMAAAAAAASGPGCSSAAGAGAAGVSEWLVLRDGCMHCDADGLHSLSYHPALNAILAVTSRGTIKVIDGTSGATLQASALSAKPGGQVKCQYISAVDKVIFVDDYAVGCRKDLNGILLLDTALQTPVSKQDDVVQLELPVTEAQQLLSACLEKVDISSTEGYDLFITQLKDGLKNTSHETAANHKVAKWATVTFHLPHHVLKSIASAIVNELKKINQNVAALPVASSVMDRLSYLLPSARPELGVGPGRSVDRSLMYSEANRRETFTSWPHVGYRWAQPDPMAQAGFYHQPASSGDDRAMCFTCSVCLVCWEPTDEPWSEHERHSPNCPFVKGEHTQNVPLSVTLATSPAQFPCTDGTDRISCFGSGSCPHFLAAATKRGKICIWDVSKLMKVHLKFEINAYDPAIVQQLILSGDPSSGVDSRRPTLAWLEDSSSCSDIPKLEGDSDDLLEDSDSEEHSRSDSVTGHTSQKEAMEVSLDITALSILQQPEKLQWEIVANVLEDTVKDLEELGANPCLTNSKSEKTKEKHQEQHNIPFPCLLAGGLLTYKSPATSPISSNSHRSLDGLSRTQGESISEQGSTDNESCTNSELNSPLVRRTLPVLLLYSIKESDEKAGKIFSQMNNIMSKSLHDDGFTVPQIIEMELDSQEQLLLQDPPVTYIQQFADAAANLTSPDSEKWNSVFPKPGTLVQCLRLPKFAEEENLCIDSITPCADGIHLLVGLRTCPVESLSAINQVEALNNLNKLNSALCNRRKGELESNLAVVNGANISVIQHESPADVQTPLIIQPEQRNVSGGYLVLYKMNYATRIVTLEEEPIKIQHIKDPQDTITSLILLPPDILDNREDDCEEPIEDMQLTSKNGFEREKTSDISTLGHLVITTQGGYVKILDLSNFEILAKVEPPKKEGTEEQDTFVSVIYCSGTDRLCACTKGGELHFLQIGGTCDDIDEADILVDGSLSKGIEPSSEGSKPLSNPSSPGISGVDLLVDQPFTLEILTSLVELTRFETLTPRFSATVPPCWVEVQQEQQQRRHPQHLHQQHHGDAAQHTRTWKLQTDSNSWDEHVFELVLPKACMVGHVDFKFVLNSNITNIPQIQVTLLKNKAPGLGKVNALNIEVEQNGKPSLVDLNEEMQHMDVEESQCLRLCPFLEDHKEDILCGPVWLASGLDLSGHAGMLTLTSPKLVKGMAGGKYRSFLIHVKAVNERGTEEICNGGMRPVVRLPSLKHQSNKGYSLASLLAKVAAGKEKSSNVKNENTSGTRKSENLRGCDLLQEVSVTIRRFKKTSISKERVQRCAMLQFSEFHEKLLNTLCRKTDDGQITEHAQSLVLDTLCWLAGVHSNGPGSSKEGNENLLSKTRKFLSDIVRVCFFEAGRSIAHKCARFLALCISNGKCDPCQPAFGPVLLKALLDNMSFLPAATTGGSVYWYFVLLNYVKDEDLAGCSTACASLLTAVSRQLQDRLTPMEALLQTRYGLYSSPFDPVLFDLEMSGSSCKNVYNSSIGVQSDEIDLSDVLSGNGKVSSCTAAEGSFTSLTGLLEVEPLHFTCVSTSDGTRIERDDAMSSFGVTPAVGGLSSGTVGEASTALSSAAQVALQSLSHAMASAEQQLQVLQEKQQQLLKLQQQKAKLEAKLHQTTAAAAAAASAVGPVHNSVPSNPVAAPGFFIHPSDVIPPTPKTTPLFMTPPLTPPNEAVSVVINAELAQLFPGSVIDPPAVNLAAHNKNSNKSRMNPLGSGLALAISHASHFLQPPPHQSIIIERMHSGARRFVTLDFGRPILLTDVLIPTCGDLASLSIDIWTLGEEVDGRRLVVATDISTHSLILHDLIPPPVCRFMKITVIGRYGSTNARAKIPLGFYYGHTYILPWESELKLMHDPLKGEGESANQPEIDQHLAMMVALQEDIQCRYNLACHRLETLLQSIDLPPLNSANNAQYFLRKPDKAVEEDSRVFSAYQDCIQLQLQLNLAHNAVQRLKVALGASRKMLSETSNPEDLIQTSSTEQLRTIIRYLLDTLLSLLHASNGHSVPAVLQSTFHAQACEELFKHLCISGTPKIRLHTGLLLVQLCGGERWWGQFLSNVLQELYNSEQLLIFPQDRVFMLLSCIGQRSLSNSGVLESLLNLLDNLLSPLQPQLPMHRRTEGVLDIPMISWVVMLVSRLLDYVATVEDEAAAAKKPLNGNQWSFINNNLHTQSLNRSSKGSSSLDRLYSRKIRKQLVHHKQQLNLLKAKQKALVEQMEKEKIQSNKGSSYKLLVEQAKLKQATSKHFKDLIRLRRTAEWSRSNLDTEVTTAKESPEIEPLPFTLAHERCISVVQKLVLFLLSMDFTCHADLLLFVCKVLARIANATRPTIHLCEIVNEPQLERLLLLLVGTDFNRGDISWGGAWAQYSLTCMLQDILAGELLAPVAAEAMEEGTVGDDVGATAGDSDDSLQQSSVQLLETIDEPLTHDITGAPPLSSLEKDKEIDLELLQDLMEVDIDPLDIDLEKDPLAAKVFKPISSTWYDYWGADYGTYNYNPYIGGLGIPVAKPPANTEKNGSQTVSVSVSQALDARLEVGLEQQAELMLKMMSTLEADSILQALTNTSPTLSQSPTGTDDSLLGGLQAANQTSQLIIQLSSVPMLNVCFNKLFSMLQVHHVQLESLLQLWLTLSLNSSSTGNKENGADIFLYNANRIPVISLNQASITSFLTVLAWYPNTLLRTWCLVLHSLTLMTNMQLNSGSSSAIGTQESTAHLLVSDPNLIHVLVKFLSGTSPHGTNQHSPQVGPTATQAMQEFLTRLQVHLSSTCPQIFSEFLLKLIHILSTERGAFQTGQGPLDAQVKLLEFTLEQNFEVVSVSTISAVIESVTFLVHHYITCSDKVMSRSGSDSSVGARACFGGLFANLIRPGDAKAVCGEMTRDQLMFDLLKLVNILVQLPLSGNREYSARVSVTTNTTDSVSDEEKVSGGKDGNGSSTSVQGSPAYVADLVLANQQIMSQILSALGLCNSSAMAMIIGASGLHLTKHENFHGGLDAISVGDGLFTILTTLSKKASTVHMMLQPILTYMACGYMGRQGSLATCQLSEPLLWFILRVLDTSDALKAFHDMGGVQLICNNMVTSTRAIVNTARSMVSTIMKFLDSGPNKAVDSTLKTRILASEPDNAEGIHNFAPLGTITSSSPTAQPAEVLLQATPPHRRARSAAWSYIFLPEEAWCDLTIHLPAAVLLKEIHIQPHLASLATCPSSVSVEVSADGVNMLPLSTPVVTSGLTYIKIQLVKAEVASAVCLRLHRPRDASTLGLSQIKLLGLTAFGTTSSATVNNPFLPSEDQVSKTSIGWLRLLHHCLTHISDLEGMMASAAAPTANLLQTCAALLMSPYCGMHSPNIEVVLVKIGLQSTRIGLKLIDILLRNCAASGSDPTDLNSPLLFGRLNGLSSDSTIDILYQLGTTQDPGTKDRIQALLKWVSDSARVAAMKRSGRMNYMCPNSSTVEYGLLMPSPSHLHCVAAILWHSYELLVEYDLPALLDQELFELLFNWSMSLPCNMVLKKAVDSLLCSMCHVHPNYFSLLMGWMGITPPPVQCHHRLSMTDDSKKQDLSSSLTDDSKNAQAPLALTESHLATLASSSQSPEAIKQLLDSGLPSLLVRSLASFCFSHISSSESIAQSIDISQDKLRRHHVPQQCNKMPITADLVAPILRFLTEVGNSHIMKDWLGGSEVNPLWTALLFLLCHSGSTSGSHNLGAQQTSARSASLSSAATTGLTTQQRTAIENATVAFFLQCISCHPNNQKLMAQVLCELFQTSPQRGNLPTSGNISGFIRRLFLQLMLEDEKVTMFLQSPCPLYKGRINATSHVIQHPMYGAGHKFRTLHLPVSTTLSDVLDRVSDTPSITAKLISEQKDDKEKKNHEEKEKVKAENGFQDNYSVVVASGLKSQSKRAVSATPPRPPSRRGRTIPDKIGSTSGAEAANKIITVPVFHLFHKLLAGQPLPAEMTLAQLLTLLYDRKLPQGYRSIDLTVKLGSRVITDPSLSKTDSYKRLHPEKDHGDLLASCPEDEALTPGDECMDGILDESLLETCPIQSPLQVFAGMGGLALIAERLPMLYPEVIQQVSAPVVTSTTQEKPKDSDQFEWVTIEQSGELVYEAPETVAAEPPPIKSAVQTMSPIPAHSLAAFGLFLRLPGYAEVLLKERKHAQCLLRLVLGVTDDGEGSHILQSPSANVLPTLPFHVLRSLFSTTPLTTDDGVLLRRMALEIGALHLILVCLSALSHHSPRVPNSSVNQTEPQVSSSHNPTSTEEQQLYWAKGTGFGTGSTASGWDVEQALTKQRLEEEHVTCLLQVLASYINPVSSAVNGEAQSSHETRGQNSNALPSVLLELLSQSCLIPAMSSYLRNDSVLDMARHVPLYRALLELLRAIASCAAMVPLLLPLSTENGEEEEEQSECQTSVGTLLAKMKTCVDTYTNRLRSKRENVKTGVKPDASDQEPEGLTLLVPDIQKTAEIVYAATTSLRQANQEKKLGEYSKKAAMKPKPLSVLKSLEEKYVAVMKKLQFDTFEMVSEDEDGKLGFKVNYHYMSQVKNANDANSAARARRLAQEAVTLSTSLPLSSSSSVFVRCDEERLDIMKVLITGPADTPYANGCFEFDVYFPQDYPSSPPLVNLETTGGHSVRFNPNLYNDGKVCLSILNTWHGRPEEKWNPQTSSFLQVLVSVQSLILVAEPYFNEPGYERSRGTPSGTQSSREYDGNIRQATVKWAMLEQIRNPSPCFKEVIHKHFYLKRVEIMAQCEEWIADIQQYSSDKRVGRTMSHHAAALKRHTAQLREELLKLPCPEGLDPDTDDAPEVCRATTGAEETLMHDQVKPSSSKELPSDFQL
UniProt O75934: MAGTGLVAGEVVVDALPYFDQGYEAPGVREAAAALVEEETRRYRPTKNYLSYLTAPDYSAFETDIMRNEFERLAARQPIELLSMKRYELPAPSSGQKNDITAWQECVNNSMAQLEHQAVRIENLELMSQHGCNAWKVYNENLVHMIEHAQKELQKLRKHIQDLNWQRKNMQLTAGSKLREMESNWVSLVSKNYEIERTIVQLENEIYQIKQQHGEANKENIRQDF
UniProt P78537: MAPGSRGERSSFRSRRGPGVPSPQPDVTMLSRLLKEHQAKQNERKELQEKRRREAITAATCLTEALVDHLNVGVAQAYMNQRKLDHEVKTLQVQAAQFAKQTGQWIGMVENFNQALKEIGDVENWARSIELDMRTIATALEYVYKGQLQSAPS
UniProt Q6PGQ7, whole entry, looked up: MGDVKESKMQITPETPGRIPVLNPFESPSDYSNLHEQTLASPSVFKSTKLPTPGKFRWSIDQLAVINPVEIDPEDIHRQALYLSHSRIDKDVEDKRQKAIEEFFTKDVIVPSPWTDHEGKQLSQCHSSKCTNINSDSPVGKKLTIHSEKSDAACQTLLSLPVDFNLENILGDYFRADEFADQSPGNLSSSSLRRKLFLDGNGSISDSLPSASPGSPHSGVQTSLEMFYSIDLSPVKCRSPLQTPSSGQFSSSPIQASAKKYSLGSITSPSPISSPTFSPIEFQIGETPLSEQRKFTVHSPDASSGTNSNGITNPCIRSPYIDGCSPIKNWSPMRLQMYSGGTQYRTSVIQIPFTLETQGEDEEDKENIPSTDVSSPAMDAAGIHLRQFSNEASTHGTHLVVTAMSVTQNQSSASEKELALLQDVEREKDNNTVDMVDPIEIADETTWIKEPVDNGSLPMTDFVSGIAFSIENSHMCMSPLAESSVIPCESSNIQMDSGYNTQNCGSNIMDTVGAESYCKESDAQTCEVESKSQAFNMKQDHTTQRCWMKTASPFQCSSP
UniProt O15392, whole entry, looked up: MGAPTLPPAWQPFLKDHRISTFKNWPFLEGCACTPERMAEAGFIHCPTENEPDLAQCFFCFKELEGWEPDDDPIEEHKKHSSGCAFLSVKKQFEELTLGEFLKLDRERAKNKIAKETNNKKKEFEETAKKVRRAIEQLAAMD

What was measured:
Test in all cases: log2 fold change, soluble protein after heating vs DMSO (PISA); higher = thermal stabilisation; K562 lysate, 10 uM; active = over 0.2 and 3.5 SD of the protein, either way, in both replicates (recomputed)
[1] = compound: C#Cc1cccc(Nc2ncnc3cc(OCCOC)c(OCCOC)cc23)c1 [erlotinib]
In short: (§1)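 Pellets of K562 cells were dounce-homogenised in PBS pH 7.4 with 1 mM MgCl2, and the crude extract was held at 1 mg/mL protein for a 30 min treatment with 10 μM compound. Aliquots were heated for 3 min over 48°C-58°C and pooled before NP-40 was added to 0.5% at 4°C. The supernatant from 21,000xg for 90 min was quantified by TMTpro 16plex LC-MS/MS with channel sums equalised. Values are reported from duplicates as log-two fold change in thermal stability relative to solvent controls.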

[2] = compound: C/C(=N\NC(=O)C1=CC(=CC=C1)S(=O)(=O)N2CCOCC2)/C3=C(C=CC(=C3)Cl)O
In short: as §1

[3] = compound: C1=CC(=CC=C1C2=NC3=C(N2)C=C(C=C3)C(=O)N)OC4=CC=C(C=C4)Cl
In short: as §1

[4] = compound: C1=CC2=C(C=CC(=C2)/C=C\3/C(=O)NC(=NCC4=CC=CS4)S3)N=C1
In short: as §1

[5] = compound: C1=CC2=NC=CN=C2C=C1/C=C/3\C(=O)NC(=O)S3
In short: as §1

[6] = compound: C1=CC=C(C=C1)C2=NC(=C(N2)C3=CC=NC=C3)C4=CC(=C(C=C4)Cl)O
In short: as §1

[7] = compound: C1=CC=C2C(=C1)C3=NNC4=CC=CC(=C43)C2=O
In short: as §1

[8] = compound: C1CCN(C1)C(=O)NC2=CC=CC(=C2)NC3=NC=C(C(=N3)NCCC4=CN=CN4)Br
In short: as §1

[9] = compound: C1CN(CCC1(CC2=CC=C(C=C2)Cl)N)C3=NC=NC4=C3C=CN4
In short: as §1

[10] = compound: C1COCCN1CCN2C3=CC=CC=C3N=C2NC(=O)C4=CC(=CC=C4)[N+](=O)[O-] [IRAK-1-4 Inhibitor I]
In short: as §1

Measured: log2 fold change

BLOC1S6 (UniProt Q9UL45)
inactive: [1] -0.008 | [2] 0.007 | [3] 0.029 | [4] 0.027 | [5] 0.001 | [6] 0.002 | [7] -0.004 | [8] 0.093 | [9] -0.01 | [10] -0.031

BCL2L1 (UniProt Q07817)
inactive: [1] -0.029 | [2] -0.019 | [3] -0.004 | [4] 0.006 | [5] -0.005 | [6] -0.001 | [7] 0.014 | [8] 0.036 | [9] 0.031 | [10] 0.022

BLOC1S3 (UniProt Q6QNY0)
inactive: [1] 0.047 | [2] -0.058 | [3] 0.003 | [4] -0.01 | [5] -0.001 | [6] -0.014 | [7] 0.002 | [8] 0.007 | [9] -0.008 | [10] 0.061

BIRC6 (UniProt Q9NR09)
inactive: [1] 0.052 | [2] 0.005 | [3] -0.027 | [4] 0.018 | [5] -0.007 | [6] 0.005 | [7] -0.015 | [8] -0.005 | [9] 0.01 | [10] 0.002

BCAP31 isoform 2 (UniProt P51572)
inactive: [1] -0.039 | [2] 0.006 | [3] -0.026 | [4] -0.013 | [5] -0.017 | [6] 0.035 | [7] 0.007 | [8] 0.001 | [9] -0.007 | [10] -0.005

BRK1 isoform 2 (UniProt Q8WUW1)
inactive: [1] 0.032 | [2] -0.03 | [3] -0.09 | [4] 0.088 | [5] -0.059 | [6] -0.025 | [7] 0.038 | [8] -0.004 | [9] 0.086 | [10] -0.047

BCAS2 (UniProt O75934)
inactive: [1] 0.047 | [2] -0.038 | [3] 0.012 | [4] -0.005 | [5] 0.037 | [6] 0.034 | [7] -0.007 | [8] 0.017 | [9] 0.037 | [10] -0.009

BLOC1S1 (UniProt P78537)
inactive: [1] 0.008 | [2] -0.035 | [3] 0.007 | [4] 0.057 | [5] -0.007 | [6] 0.034 | [7] -0.038 | [8] -0.003 | [9] -0.004 | [10] -0.043

BCAP29 isoform 2 (UniProt Q9UHQ4)
inactive: [1] -0.035 | [2] 0.033 | [3] -0.058 | [4] -0.005 | [5] -0.015 | [6] -0.026 | [7] 0.089 | [8] -0.022 | [9] -0.024 | [10] -0.042

BORA (UniProt Q6PGQ7)
inactive: [1] 0.013 | [2] -0.121 | [3] -0.022 | [4] 0.211 | [5] -0.035 | [6] -0.026 | [7] 0.05 | [8] 0.025 | [9] 0.103 | [10] -0.008

BIRC5 (UniProt O15392)
inactive: [1] 0.002 | [2] -0.008 | [3] 0.119 | [4] 0.096 | [5] -0.024 | [6] 0.153 | [7] 0.063 | [8] 0.039 | [9] 0.067 | [10] 0.061

BCKDK (UniProt O14874)
inactive: [1] -0.041 | [2] -0.168 | [3] -0.007 | [4] 0.062 | [5] -0.007 | [6] -0.053 | [7] 0.01 | [8] -0.041 | [9] 0.045 | [10] -0.097

BTF3L4 (UniProt Q96K17)
inactive: [1] -0.054 | [2] 0.007 | [3] 0.002 | [4] -0.016 | [5] -0.01 | [6] -0.011 | [7] 0.045 | [8] 0.004 | [9] 0.001 | [10] 0.056

Copied from the listing (four entries):
BIRC6 (UniProt Q9NR09)
inactive: [1] 0.052 | [2] 0.005 | [3] -0.027 | [4] 0.018 | [5] -0.007 | [6] 0.005 | [7] -0.015 | [8] -0.005 | [9] 0.01 | [10] 0.002

BCAP31 isoform 2 (UniProt P51572)
inactive: [1] -0.039 | [2] 0.006 | [3] -0.026 | [4] -0.013 | [5] -0.017 | [6] 0.035 | [7] 0.007 | [8] 0.001 | [9] -0.007 | [10] -0.005

BRK1 isoform 2 (UniProt Q8WUW1)
inactive: [1] 0.032 | [2] -0.03 | [3] -0.09 | [4] 0.088 | [5] -0.059 | [6] -0.025 | [7] 0.038 | [8] -0.004 | [9] 0.086 | [10] -0.047

BCAS2 (UniProt O75934)
inactive: [1] 0.047 | [2] -0.038 | [3] 0.012 | [4] -0.005 | [5] 0.037 | [6] 0.034 | [7] -0.007 | [8] 0.017 | [9] 0.037 | [10] -0.009

Going on with the list.

BNIP2 (UniProt J3KN59)
inactive: [1] -0.075 | [2] -0.006 | [3] -0.116 | [4] 0.065 | [5] 0.006 | [6] -0.025 | [7] 0.02 | [8] -0.185 | [9] 0.021 | [10] -0.023
